# Measured values as given in patent publication US6887853B2, “Use of geldanamycin and related compounds for treatment of fibrogenic disorders” (The Trustees of Boston University, priority 2000, dated 2005).
# At least one structure is not confirmed: it was looked up by name or label, or the drawing left a doubt.
# What was measured:
# [1] = tested on: endogenous collagen transcript in mouse 3T3 cells; assay: Northern analysis of endogenous α1(I) collagen message, NIH 3T3 fibroblasts; type: cell-based; conditions: 24 hour treatment
# Procedure: FIGS. 7A-7C show fibroblasts subjected to 24-hour treatments with geldanamycin, TGF or both. After 24 hours, total RNA was harvested and subjected to northern analysis using an α1(I) collagen probe. (A) Northern analysis using NIH 3T3 fibroblasts. (B) Northern analysis using primary healthy human dermal fibroblasts. (C) Methylene blue staining of the filter in (B). Numbers represent relative intensities of the lower collagen band after normalizing bands to GAPDH band intensity; The clone corresponding to Hsp90-α was purchased as an EST from Genome Systems. […] Sequencing was performed at the Boston University DNA/Protein Sequencing Core. Northern analysis of Hsp90 to total RNA from scleroderma and healthy fibroblasts was performed as previously described (10). Geldanamycin was a generous gift of the National Cancer Institute. Geldanamycin was dissolved in dimethylsulfoxide (DMSO) and used at a final concentration of 2 μM except where indicated otherwise. DMSO without geldanamycin was added as the carrier control for all experiments using geldanamycin. The chaperone function of Hsp90 is dependent on the hydrolysis of ATP (44). […] Geldanamycin was examined to determine whether its inhibition of Hsp90 affected TGF-β activation of collagen transcription in mouse 3T3 and human dermal fibroblasts. Endogenous collagen message levels were used as a measure of TGF-β signal transduction. […] With TGF-β, the level of the endogenous collagen transcript is increased approximately 6-fold. However, when geldanamycin and TGF-β are added together, the inhibitory effect of geldanamycin dominates. […] The results in the presence of serum (right 4 lanes) are similar.
# [2] = tested on: Smad binding element reporter; assay: Smad-controlled pGL3 luciferase reporter in transfected 3T3 fibroblasts; type: cell-based, mouse; conditions: no exogenous TGF-β, increasing concentrations of geldanamycin, harvested at 48 hours
# Oct1 binding site = assay: Electrophoretic mobility shift assay, control Oct-1 binding oligos, 3T3 nuclear extracts; type: cell-based, mouse; conditions: 24 hour treatment, various concentrations of geldanamycin
# [3] = tested on: Smad DNA-binding activity; assay: Electrophoretic mobility shift assay, Smad binding element (SBE), 3T3 nuclear extracts; type: cell-based, mouse
# PN1 promoter = assay: Protease nexin 1 (PN1) promoter luciferase reporter in transfected NIH 3T3 cells; type: cell-based, mouse; conditions: NIH 3T3, 24 hour treatment
# Procedure: The latter contains a 4.5 kb fragment of the PN1 promoter driving the luciferase gene. Cells were incubated for 24 hours after transfection, washed 3 times with PBS and then subjected to a 24 hour treatment with geldanamycin, TGF or both, as indicated. Cells were then harvested and luciferase activities determined; Transient transfections were performed using lipofectamine (Gibco BRL) as follows: 10 μg (total) of indicated plasmid DNA was mixed with 30 μl of lipofectamine and 500 μl of serum-free DMEM (Gibco). This mixture was incubated at room temperature for 20 minutes. Ten cm dishes of sub-confluent 3T3 fibroblasts were rinsed with PBS, and 5 ml of serum free DMEM added to each dish. The DNA/lipofectamine mixture was added to each dish and incubated in the 37° CO2 incubator for 4 hours. Ten ml of DMEM with 15% serum was added and plates were incubated overnight. Medium was replaced with 10% serum at 24 hours and extracts of cells were harvested at 48 hours. Cell extracts were obtained using Passive Lysis Buffer (Promega) and assays were performed according to the Promega protocol for pGL3 luciferase vectors. Protein concentrations of all extracts were determined and each luciferase reading is normalized for protein concentration. The 4.7 kb human MMP1 promoter driving luciferase was a gift of Constance Brinckerhoff (Dartmouth Medical School) (36). […] The 3TP lux construct, consisting of three AP1 sites and the plasminogen activator inhibitor promoter (37,38), was a gift from […] (Boston University). The 4.5 kb protease nexin 1 promoter driving luciferase (39) was a gift from Denis Guttridge (University of North Carolina, Chapel Hill). Geldanamycin was a generous gift of the National Cancer Institute. Geldanamycin was dissolved in dimethylsulfoxide (DMSO) and used at a final concentration of 2 μM except where indicated otherwise. DMSO without geldanamycin was added as the carrier control for all experiments using geldanamycin. […]
# [4] = tested on: endogenous collagen transcript in healthy human dermal fibroblasts; assay: Northern analysis of endogenous α1(I) collagen message, primary healthy human dermal fibroblasts; type: cell-based
# [5] = tested on: TGF-β-sensitive promoter in the 3TPlux construct; assay: TGF-β-sensitive 3TPlux luciferase reporter in transfected NIH 3T3 cells; type: cell-based, mouse
# Procedure: The latter contains a 4.5 kb fragment of the PN1 promoter driving the luciferase gene. Cells were incubated for 24 hours after transfection, washed 3 times with PBS and then subjected to a 24 hour treatment with geldanamycin, TGF or both, as indicated. Cells were then harvested and luciferase activities determined; Transient transfections were performed using lipofectamine (Gibco BRL) as follows: 10 μg (total) of indicated plasmid DNA was mixed with 30 μl of lipofectamine and 500 μl of serum-free DMEM (Gibco). This mixture was incubated at room temperature for 20 minutes. Ten cm dishes of sub-confluent 3T3 fibroblasts were rinsed with PBS, and 5 ml of serum free DMEM added to each dish. The DNA/lipofectamine mixture was added to each dish and incubated in the 37° CO2 incubator for 4 hours. Ten ml of DMEM with 15% serum was added and plates were incubated overnight. Medium was replaced with 10% serum at 24 hours and extracts of cells were harvested at 48 hours. Cell extracts were obtained using Passive Lysis Buffer (Promega) and assays were performed according to the Promega protocol for pGL3 luciferase vectors. Protein concentrations of all extracts were determined and each luciferase reading is normalized for protein concentration. The 4.7 kb human MMP1 promoter driving luciferase was a gift of Constance Brinckerhoff (Dartmouth Medical School) (36). […]
# [6] = tested on: TGF-β-responsive promoter driving a luciferase reporter (p3TP-lux); conditions: stably transfected p3TP-lux cell line; stated as known; cited from earlier work
structure (smiles),measurement,setting,value
COC1=C2C[C@@H](C)C[C@H](OC)[C@H](O)[C@@H](C)/C=C(\C)[C@H](OC(N)=O)[C@@H](OC)/C=C\C=C(/C)C(=O)NC(=CC1=O)C2=O [geldanamycin],basal level of the collagen transcript,"[1]; NIH 3T3, absence of serum, geldanamycin 2 μM, no TGF-β",reduces the basal level of the collagen transcript
same,"collagen transcript level, geldanamycin and TGF-β added together","[1]; NIH 3T3, absence of serum, with TGF-β",reduces the collagen transcript level below baseline
same,"collagen transcript level, geldanamycin alone or in the presence of TGF-β","[1]; NIH 3T3, presence of serum",reduction of collagen transcript to below baseline
same,reduction of Smad-dependent transcription,[2],two-thirds
same,level of binding of 3T3 nuclear extracts to the Oct1 binding site,Oct1 binding site,not significantly changed
same,TGF-β-increased level of nuclear Smad binding,[3]; 1 hour geldanamycin before 15 minute TGF-β,reduced to below the control
same,level of Smad bound to its Smad binding element relative to control,"[3]; 1 hour treatment with 20 μM geldanamycin, no TGF-β",modestly reduced
same,overall effect on the activity of the PN1 promoter,PN1 promoter,small induction
same,basal level of activity of the PN1 promoter,PN1 promoter; no TGF-β,neither reduces the basal level of activity of this promoter
same,activity of the PN1 promoter in the presence of TGF-β,PN1 promoter; with TGF-β,nor reduces the activity of this promoter in the presence of TGF-β
same,GAPDH message level (control hybridization),[4]; 24 hour treatment,no variation
same,"collagen synthesis (collagen message), geldanamycin alone",[4]; 24 hour treatment,reduces collagen synthesis
same,induction of collagen by TGF-β,"[4]; geldanamycin plus TGF-β, 24 hour",completely blocked
same,"level of expression of the TGF-β-sensitive promoter (luciferase), geldanamycin alone","[5]; NIH 3T3, 24 hour treatment, no TGF-β",slightly reduces
same,TGF-β induction of 3TPlux promoter activity,"[5]; NIH 3T3, geldanamycin and TGF-β added simultaneously, 24 hour",completely blocked
same,TGF-β-induced increase in luciferase activity (10-30-fold),[6],substantially blocked
